# In article PMC7819943, “Rice protein-binding microarrays: a tool to detect cis-acting elements near promoter regions in rice”:
# The chains behind the UniProt entries cited, without tags or fusion partners.
# UniProt Q0JBA9, entry or part of it: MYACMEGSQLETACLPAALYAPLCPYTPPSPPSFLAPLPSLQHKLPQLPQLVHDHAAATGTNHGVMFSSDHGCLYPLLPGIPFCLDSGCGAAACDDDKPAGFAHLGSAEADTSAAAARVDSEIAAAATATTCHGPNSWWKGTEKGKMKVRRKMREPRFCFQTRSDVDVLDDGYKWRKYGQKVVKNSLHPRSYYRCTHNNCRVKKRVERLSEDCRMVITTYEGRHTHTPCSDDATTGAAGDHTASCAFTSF
# Some of the results follow.
# Molecular target: OsWRKY34 (Oryza sativa, UniProt Q0JBA9 1-250)
# Experiment: protein-binding microarray (RPBM); PBS, 2% BSA, 51.3 ng/ul salmon testes DNA, 50 uM zinc acetate, 200 nM TF, 25 C, 1 h; high values mean tight binding
# Conditions: protein: recombinant; tags: N-terminal polyhistidine and DsRed monomer fusion (pET32a); label: CyDye5-dUTP incorporated in the synthesized complementary strand; 3' TTTTT single-stranded linker to array surface; dsDNA, one strand shown
# In short: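 The binding signal is fluorescence intensity per array feature (arbitrary units). Readings came from an Axon 4000B scanner after a washed, 2% BSA-blocked, double-stranded custom Agilent array had been incubated for 1 h at 25 °C with 200 nM protein and 50 µM zinc acetate. The protein was a Ni–NTA-purified transcription factor fused N-terminally to polyhistidine and DsRed, expressed in E. coli BL21-CodonPlus.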
row,Sequence,binding signal
1,GGCAGAACTCCAAACTTTGGCAATTTTCCCTATTCTATTCCGGAGTCACCTAGTGCAG,9500 fluorescence intensity (a.u.)
2,TCACCACCAGGTTGACCATTCCCACACACCAGGTTCTTGACGGAGTCACCTAGTGCAG,8900 fluorescence intensity (a.u.)
3,ATCCCGCGTCGACGTAGAAAATATATTTGTTGATTTCTCTCGGAGTCACCTAGTGCAG,8810 fluorescence intensity (a.u.)
4,ACGGTACTACACATCTAATACTGGATTGACTTTTTATTCACGGAGTCACCTAGTGCAG,9620 fluorescence intensity (a.u.)
5,TCATGATTAGTACATTTTTCTTGCCACAACTTGTCATTCACGGAGTCACCTAGTGCAG,8500 fluorescence intensity (a.u.)
6,GGCCGACCCCTTTGCCTCCTTAGGCCTTCTGCCCTAGTTCCGGAGTCACCTAGTGCAG,9950 fluorescence intensity (a.u.)
7,AAGCCTCATTTGACTTTTATCTTTGCACATTTTAATTGTTCGGAGTCACCTAGTGCAG,10400 fluorescence intensity (a.u.)
8,TCACCAATTGGTTTATGCTCACTCCACCACTGTTAATTATCGGAGTCACCTAGTGCAG,9080 fluorescence intensity (a.u.)
9,TGTTTTTCCTGTGTTTTGCAATCCTCTGGTTTACAATTGTCGGAGTCACCTAGTGCAG,13500 fluorescence intensity (a.u.)
10,TGCGCGTTCTACTCTGGTCTCCGGTGGCCTCTTGGCCGGACGGAGTCACCTAGTGCAG,8210 fluorescence intensity (a.u.)
11,GGTTTCCATGTCCAACGTTTGATCATCCATCTTATATGAACGGAGTCACCTAGTGCAG,11100 fluorescence intensity (a.u.)
12,GGGTCTAACTCTAAGAGTATTGGGTACCCCTTATCGTTAACGGAGTCACCTAGTGCAG,8360 fluorescence intensity (a.u.)
13,TGTATTTGAGCTGGCAAGTTTGCCCATGGGTTGTTGAAATCGGAGTCACCTAGTGCAG,8800 fluorescence intensity (a.u.)
14,GTTTTACTAGTGAATTTTCTTTTCTTTGCTTCGTTTAATGCGGAGTCACCTAGTGCAG,8930 fluorescence intensity (a.u.)
15,CATCATCGTGCACCGCGCCGCCCTCTTCGATCGCCCAGACCGGAGTCACCTAGTGCAG,10900 fluorescence intensity (a.u.)
16,ACAGCAATCCCATCCTATCTCCACCGTGATTTTCGCTCCCCGGAGTCACCTAGTGCAG,8670 fluorescence intensity (a.u.)
17,GCGCGGTGCTTTCTTGCTTATTTTTATACTAGTACTACTACGGAGTCACCTAGTGCAG,9710 fluorescence intensity (a.u.)
18,TGCCACATCCTCGTTTCGTCTCATAGGAATTTCTATGCTACGGAGTCACCTAGTGCAG,8100 fluorescence intensity (a.u.)
19,AATATTCGCAAAATAACCTCTTATTTGGTTTCTATTTTATCGGAGTCACCTAGTGCAG,8480 fluorescence intensity (a.u.)
20,CCGTTTCCCGGGCTTTTTTTCCATTTCCCGTCGTCTCCACCGGAGTCACCTAGTGCAG,9840 fluorescence intensity (a.u.)
21,GCACAGAGCATGCAGCATCTGACGCGCCATCCCAACCATGCGGAGTCACCTAGTGCAG,8310 fluorescence intensity (a.u.)

row,Sequence,binding signal
1,CGACGAGCGAGAGGTAGGTGAGAGAGAGACGGGCGGCGAACGGAGTCACCTAGTGCAG,65100 fluorescence intensity (a.u.)
2,CGCAACCCTTTCTTCCTCCTCTGTCGCTCTCTCTCTCTCTCGGAGTCACCTAGTGCAG,9100 fluorescence intensity (a.u.)
3,ATGTTATGAATTGATTGGGTTAGGGAGTTTTCTTCTGGTCCGGAGTCACCTAGTGCAG,9450 fluorescence intensity (a.u.)
4,TGGGAATTTAACTTTGCCTCTCTTTTTTTTTTCAATAGTCCGGAGTCACCTAGTGCAG,8170 fluorescence intensity (a.u.)
5,CTAGATTTACTATTTTTGGTGTATTTGTTTTTTTCATTTACGGAGTCACCTAGTGCAG,8340 fluorescence intensity (a.u.)
6,CCTAGCCCTAATTGATCCTTGCCTCGATGTTTTCCCTCCGCGGAGTCACCTAGTGCAG,10100 fluorescence intensity (a.u.)
7,AGGTAGTTTTTAATTCGTCTCAAACATCCTGACCTTTTTCCGGAGTCACCTAGTGCAG,9440 fluorescence intensity (a.u.)
8,GATGGATTTGTGATTTCGTGATTTAGTGGATTTGTGATTCCGGAGTCACCTAGTGCAG,9230 fluorescence intensity (a.u.)
9,GGGGCTTGATTTATTGGGGTTTTGATAGTTGAGAACTTGACGGAGTCACCTAGTGCAG,12800 fluorescence intensity (a.u.)
10,TGTCGTCGTCGCCGCCGCCGCCGCCTCCCGGGCCTCTCCGCGGAGTCACCTAGTGCAG,8120 fluorescence intensity (a.u.)
11,ATGTACAAACTTCCATGGCCTCGCGGTCGCCGACCAACAACGGAGTCACCTAGTGCAG,10000 fluorescence intensity (a.u.)
12,TCCAAAGTACTCTAAGCACAACTTTTCGCTTTTTATATTTCGGAGTCACCTAGTGCAG,10700 fluorescence intensity (a.u.)
13,GCAATTATTAATGTACCGCTCCGTTTTCATTTTTGGGTTGCGGAGTCACCTAGTGCAG,8630 fluorescence intensity (a.u.)
14,TGTGCCGCCGCCGCCGCCTCACATCCACTCCACTCTCTCTCGGAGTCACCTAGTGCAG,8640 fluorescence intensity (a.u.)
15,CCCTAGCCCTCGCGCCGCTCTTCTCCTACCCGGCCCACGCCGGAGTCACCTAGTGCAG,12600 fluorescence intensity (a.u.)
16,TTGACATTTATAAAAGAGAATTTGTTGGTGTTATGTTGACCGGAGTCACCTAGTGCAG,8080 fluorescence intensity (a.u.)
17,ATGGGCCGGGGTTAATGTTTTGTGTCATTGTGTGTGAGACCGGAGTCACCTAGTGCAG,10000 fluorescence intensity (a.u.)
18,TAACCGCCGTTTATCTGAACTTTTTTTTCACTATGAAACACGGAGTCACCTAGTGCAG,9220 fluorescence intensity (a.u.)
19,ACAATTTTTTTCCTTTTACCTCTATGCTTGGAACTCATAACGGAGTCACCTAGTGCAG,8490 fluorescence intensity (a.u.)
20,TCAGCCACACCTCCGCCACTGCCGCGACACCTGAAACAACCGGAGTCACCTAGTGCAG,8340 fluorescence intensity (a.u.)
21,TGTCCGCTTATTTGTTTTAGTCATCGTTCTGGTTAAGATTCGGAGTCACCTAGTGCAG,11400 fluorescence intensity (a.u.)

row,Sequence,binding signal
1,ACCCAATCAGCGTCCACTCCATTGTCCATTCCACTATTCCCGGAGTCACCTAGTGCAG,13500 fluorescence intensity (a.u.)
2,TCATCCTCTTCGCTTGGCCTTCTCCGCATCCGGTTATTTTCGGAGTCACCTAGTGCAG,8180 fluorescence intensity (a.u.)
3,TTCATCCACACTGCAACGCAAGCACAGCCGTCGCGAAAACCGGAGTCACCTAGTGCAG,8140 fluorescence intensity (a.u.)
4,TTTTTCCGTGTGTGTCGTTTCGTTCTTGTTTGTTCGGGTCCGGAGTCACCTAGTGCAG,12400 fluorescence intensity (a.u.)
5,GATTAGTTCCTAACCACATTTTCCAAACACAGCCTAATTACGGAGTCACCTAGTGCAG,8490 fluorescence intensity (a.u.)
6,ACGTGGCTCCTTTGACTAGATTTTTGTCTCACGTATCATTCGGAGTCACCTAGTGCAG,8540 fluorescence intensity (a.u.)
7,CCGCACTGTCCCTTTCGCCCGCGCGTCATACGGTGTCCACCGGAGTCACCTAGTGCAG,10100 fluorescence intensity (a.u.)
8,GGGATTAGGGATTGTTTGTTACTTTGTACGTCTCCTAATACGGAGTCACCTAGTGCAG,12100 fluorescence intensity (a.u.)
9,GAAGCCGACCGTTTTATTTTGTTCTGACGTTAATTTCGTGCGGAGTCACCTAGTGCAG,11800 fluorescence intensity (a.u.)
10,ACTCGACTAATGTTTCTATTTATTCTTGTCTATCATACTCCGGAGTCACCTAGTGCAG,10900 fluorescence intensity (a.u.)
11,ACTCTCTCTGTCTCGAGCTCGAGCTTGTTGTTGTTGATATCGGAGTCACCTAGTGCAG,13100 fluorescence intensity (a.u.)
12,TCCAATATTCTTCATCTACGCAAATTTCCACGGTATTCAACGGAGTCACCTAGTGCAG,10100 fluorescence intensity (a.u.)
13,GATCCAGTGGTCGTAGAGGCGGTCGGGGTGGTCGTGCACGCGGAGTCACCTAGTGCAG,10100 fluorescence intensity (a.u.)
14,TGTCTCTGCCTTTTGTTTTCTTTGCCATCTCTTTCTTTCTCGGAGTCACCTAGTGCAG,13300 fluorescence intensity (a.u.)
15,GACCCCGCGTGTCAGTCTATCCAGGTCAGCCTACTCTCTCCGGAGTCACCTAGTGCAG,9570 fluorescence intensity (a.u.)
16,TCAATCTTGGGTTTCTACTGGTCTAGGCCTGTCTTGCTTACGGAGTCACCTAGTGCAG,8760 fluorescence intensity (a.u.)
17,CCCAACCGGCAAGTATGCACACCACAATAGCGCCCAAATTCGGAGTCACCTAGTGCAG,8290 fluorescence intensity (a.u.)
18,TCGATCCATCTATCTACCTGTCGATCGGTGCTAGTATTAACGGAGTCACCTAGTGCAG,8410 fluorescence intensity (a.u.)
19,ACAGCTCACTTCAGTCTCACTTTTCCTGAATATATATAGCCGGAGTCACCTAGTGCAG,10300 fluorescence intensity (a.u.)
20,AAGATATTCTCCTCAGGAGTTAGGAGTGGTTTTAATTTTACGGAGTCACCTAGTGCAG,8760 fluorescence intensity (a.u.)
21,CCCAACCCCTGGAGCCGTACCAAATTCTGTTGGTATTCCACGGAGTCACCTAGTGCAG,8220 fluorescence intensity (a.u.)

row,Sequence,binding signal
1,GCAGCCCATGCTCTGGTTTCTATTTTTTGTGGTTTTTTTTCGGAGTCACCTAGTGCAG,8390 fluorescence intensity (a.u.)
2,TTATTAGAGTCTGTATTATTAATGTTATTACTATGCCTGGCGGAGTCACCTAGTGCAG,8140 fluorescence intensity (a.u.)
3,ACTTGTTATCGGTCTTGTTAAATTGAGCTGTTTGTTGACACGGAGTCACCTAGTGCAG,12900 fluorescence intensity (a.u.)
4,CACGTTGACCATAATGATTTAGTACCATATACGATAATACCGGAGTCACCTAGTGCAG,14200 fluorescence intensity (a.u.)
5,TGAGAGGTTTGAGCAAGAATAAGTTGGGGTTTCTTCTTTGCGGAGTCACCTAGTGCAG,8220 fluorescence intensity (a.u.)
6,CTCTAATTTTCTTTGCGTGTTCCATCATCAATATGGTATTCGGAGTCACCTAGTGCAG,10700 fluorescence intensity (a.u.)
7,TTGTTTTTATCTATAGAAGTCATCGCACTGAAAATTTGGTCGGAGTCACCTAGTGCAG,8370 fluorescence intensity (a.u.)
8,GAATTAAACTTTGCATGGTTTCTGTTTGGTCAAACTTCTCCGGAGTCACCTAGTGCAG,9130 fluorescence intensity (a.u.)
9,GGTATGGAGGCAGCTCGGGGTGGGCAGGATGGTGGCGGGACGGAGTCACCTAGTGCAG,14900 fluorescence intensity (a.u.)
10,CACCCCTGCTGATGCGTCGCCGCCACCTTCTCTCCTTCCCCGGAGTCACCTAGTGCAG,9150 fluorescence intensity (a.u.)
11,ATATACTACACTATTAATACCTGGTCCCACTTGTCATACACGGAGTCACCTAGTGCAG,9040 fluorescence intensity (a.u.)
12,TATTTTTTGTTGGGTTTTTTGCTCGGCGGCGCCGCGGCGGCGGAGTCACCTAGTGCAG,8140 fluorescence intensity (a.u.)
13,ATGAGTTTGTATGTGATTATATTTATCTCTCCATGGTTACCGGAGTCACCTAGTGCAG,8500 fluorescence intensity (a.u.)
14,GTATTTTTTCCCCTGGGTGATTTGCAACCGATTTCGTTCTCGGAGTCACCTAGTGCAG,10100 fluorescence intensity (a.u.)
15,TTTCCAGAATTTATCTTCTCTGTTTAGGTCTCCTAAAAATCGGAGTCACCTAGTGCAG,8440 fluorescence intensity (a.u.)
16,CCACCCACCGGGGCGCGCCGCGGCGACTGCTACTGTTGAGCGGAGTCACCTAGTGCAG,8360 fluorescence intensity (a.u.)
17,CACCTGCCTCCTCCTACCACCAGCCGCCGCCGACGACTAACGGAGTCACCTAGTGCAG,8550 fluorescence intensity (a.u.)
18,AGTGTGTTTGTGCGTGTTTATAGGGTGAGCGTCTATATTTCGGAGTCACCTAGTGCAG,10300 fluorescence intensity (a.u.)
19,TTTGACAACTAACTAACTAACCATCTCTTCTGTTTTCTCACGGAGTCACCTAGTGCAG,8230 fluorescence intensity (a.u.)
20,AGTGTTCCTAGCTACAACGAGTGGTTTACTTTCTCATCCTCGGAGTCACCTAGTGCAG,10300 fluorescence intensity (a.u.)
21,TGTATTTTTATTGGTTAACAATCGGTTTTCTGGGACTTAACGGAGTCACCTAGTGCAG,10100 fluorescence intensity (a.u.)

# Given with bars between the fields: entries from further up
row | Sequence | binding signal
5 | TCATGATTAGTACATTTTTCTTGCCACAACTTGTCATTCACGGAGTCACCTAGTGCAG | 8500 fluorescence intensity (a.u.)
9 | TGTTTTTCCTGTGTTTTGCAATCCTCTGGTTTACAATTGTCGGAGTCACCTAGTGCAG | 13500 fluorescence intensity (a.u.)
20 | TCAGCCACACCTCCGCCACTGCCGCGACACCTGAAACAACCGGAGTCACCTAGTGCAG | 8340 fluorescence intensity (a.u.)
21 | TGTCCGCTTATTTGTTTTAGTCATCGTTCTGGTTAAGATTCGGAGTCACCTAGTGCAG | 11400 fluorescence intensity (a.u.)
21 | CCCAACCCCTGGAGCCGTACCAAATTCTGTTGGTATTCCACGGAGTCACCTAGTGCAG | 8220 fluorescence intensity (a.u.)
